Drawing on publication PMC5426757, this text covers binding for 3 substances.

The chains behind the UniProt entries cited, without tags or fusion partners. Residues count along the entry.
UniProt P03372: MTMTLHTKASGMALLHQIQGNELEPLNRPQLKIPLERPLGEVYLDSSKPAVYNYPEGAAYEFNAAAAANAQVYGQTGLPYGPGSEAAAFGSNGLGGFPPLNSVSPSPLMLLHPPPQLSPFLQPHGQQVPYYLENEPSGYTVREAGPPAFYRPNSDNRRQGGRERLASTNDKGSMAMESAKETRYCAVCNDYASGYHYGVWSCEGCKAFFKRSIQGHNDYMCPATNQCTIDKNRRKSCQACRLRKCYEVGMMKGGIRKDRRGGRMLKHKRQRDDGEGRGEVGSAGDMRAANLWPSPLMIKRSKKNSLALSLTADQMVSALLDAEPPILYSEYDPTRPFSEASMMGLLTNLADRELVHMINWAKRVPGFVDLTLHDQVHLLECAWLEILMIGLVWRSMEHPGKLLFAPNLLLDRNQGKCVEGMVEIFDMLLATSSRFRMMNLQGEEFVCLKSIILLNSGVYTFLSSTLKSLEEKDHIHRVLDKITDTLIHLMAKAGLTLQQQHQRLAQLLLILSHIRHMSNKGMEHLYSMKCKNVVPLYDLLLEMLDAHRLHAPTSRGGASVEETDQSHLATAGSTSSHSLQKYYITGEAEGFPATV
UniProt P21860, residues 20-1342: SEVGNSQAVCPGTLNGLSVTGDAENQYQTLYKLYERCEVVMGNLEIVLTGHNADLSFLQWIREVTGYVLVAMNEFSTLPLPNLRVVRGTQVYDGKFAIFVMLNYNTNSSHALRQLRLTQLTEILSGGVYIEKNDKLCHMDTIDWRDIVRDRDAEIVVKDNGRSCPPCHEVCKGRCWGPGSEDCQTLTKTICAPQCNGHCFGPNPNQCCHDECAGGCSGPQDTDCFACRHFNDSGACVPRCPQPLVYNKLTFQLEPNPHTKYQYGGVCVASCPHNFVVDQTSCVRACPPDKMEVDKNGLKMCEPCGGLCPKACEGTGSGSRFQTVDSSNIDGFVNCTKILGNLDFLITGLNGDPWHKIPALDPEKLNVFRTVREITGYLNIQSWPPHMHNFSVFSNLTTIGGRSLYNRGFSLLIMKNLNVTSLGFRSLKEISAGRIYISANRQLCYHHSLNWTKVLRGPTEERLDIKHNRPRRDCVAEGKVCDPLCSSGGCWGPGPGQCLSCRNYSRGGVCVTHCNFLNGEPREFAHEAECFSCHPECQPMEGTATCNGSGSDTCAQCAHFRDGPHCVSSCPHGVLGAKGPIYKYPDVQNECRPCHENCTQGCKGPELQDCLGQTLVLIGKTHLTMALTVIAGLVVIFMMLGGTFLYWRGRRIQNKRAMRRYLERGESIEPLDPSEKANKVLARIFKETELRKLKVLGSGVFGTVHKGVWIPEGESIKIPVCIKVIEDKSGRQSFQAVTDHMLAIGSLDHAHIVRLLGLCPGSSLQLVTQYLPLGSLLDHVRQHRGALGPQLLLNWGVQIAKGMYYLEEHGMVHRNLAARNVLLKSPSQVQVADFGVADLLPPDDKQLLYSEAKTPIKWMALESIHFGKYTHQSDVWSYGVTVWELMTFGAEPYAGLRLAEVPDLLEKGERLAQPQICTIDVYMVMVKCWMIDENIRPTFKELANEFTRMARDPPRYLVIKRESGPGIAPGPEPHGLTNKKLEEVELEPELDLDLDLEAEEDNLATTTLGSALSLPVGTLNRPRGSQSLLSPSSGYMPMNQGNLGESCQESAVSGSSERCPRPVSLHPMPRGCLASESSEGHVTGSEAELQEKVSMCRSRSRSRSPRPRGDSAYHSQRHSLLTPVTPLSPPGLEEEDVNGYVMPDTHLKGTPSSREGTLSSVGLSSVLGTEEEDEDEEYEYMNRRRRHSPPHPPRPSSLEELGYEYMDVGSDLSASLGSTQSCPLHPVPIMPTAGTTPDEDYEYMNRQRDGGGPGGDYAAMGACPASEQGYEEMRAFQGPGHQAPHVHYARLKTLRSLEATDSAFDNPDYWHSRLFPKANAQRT

Results are given in words; binding and its absence hold for the method and conditions named. In cells and extracts the contact can be indirect. Some entries that bind do so weakly or less than the wild type.

Common to all, as to test: co-IP; lysates (Triton X100 lysis buffer) of HEK 293 cells transfected with HER2, HER3 and ERα alone or together, starved 48 h in 0.5% FCS, no estrogen, with or without HRG (5 ng/mL, 10 min); immunoprecipitated with anti-HER2 (trastuzumab), anti-HER3 (Roche Ab208) or anti-ERα (Cell Signaling 8644), Western blot for the partner
In general terms: Immunoblotting shows a protein as a band on a membrane.

The target of experiment [1] is estrogen receptor alpha (ERα) (human) (UniProt P03372).
Experiment [2] deals with human epidermal growth factor receptor 2 (HER2) (human) (UniProt P04626).
Experiment [3] deals with human epidermal growth factor receptor 3 (HER3) (human) (UniProt P21860).

With “human epidermal growth factor receptor 2 (HER2) (from UniProt P04626 23-1255)”, the binding entry in experiment [1] is recorded as “binds”.

As to “estrogen receptor alpha (ERα) (from UniProt P03372 1-595)”, the binding result in experiment [2] and in experiment [3] was “binds” in each case.

Take “human epidermal growth factor receptor 3 (HER3) (from UniProt P21860 20-1342)”: the binding entry in experiment [1] is listed as “binds”.
